The values that follow come from PubChem BioAssay (NCATS).

This is one part of the list. Further columns of the screen follow, without active or inactive calls. Most of these compounds were active or inconclusive in the main read-out, so they are no random draw. For some assays here: The note in brackets gives the kind of curve behind each potency; many fits are weak.

The nature of assay [1]: qHTS for identification of novel therapeutic agents for treatment of microphthalmiaassociated transcription factor (MiT) renal cell carcinoma (RCC) (AID 1963991). The settings on record: CellTiter-Glo, 48 h; for z-score: stronger effect = lower value. The essentials:
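Three TFE3-fusion RCC cell lines (UOK109, UOK124, UOK145), 500 cells/well, were exposed to the 1912-compound MIPE 4.0 library for 48 hours at 37 C. Viability was read by CellTiter-Glo luminescence, normalised to DMSO (100%) and empty wells (0%), with 11-concentration curve fits.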
A general note: qHTS replaces the single test concentration by a dilution series.

The nature of assay [2]: qHTS assay for small molecule antagonists of peroxisome proliferator-activated receptor gamma signaling (AID 588537). The conditions noted are these: HEK293 PPARg-UAS-bla, beta-lactamase ratio, antagonist mode; measured here: W460 blue channel. The essentials:
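Compounds are tested as concentration series for inhibition of rosiglitazone-driven (50 nM) reporter expression in GeneBLAzer PPAR-gamma-UAS-bla HEK293 cells. After 16 h at 37 C, CCF4 substrate is added for 2 h at room temperature and blue/green fluorescence is measured.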

Assay [3] is described as follows: qHTS assay for small molecule agonists of retinoid X receptor alpha signaling (AID 588544). The conditions noted are these: HEK293T RXRa-UAS-bla, beta-lactamase reporter, 18 h; 530 nm emission.
A short description of assay [4]: qHTS Assay for Modulators of Human Peripheral Myelin Protein 22 (PMP22) Expression/Activity (AID 1967). The settings on record: Cell-based PMP22 reporter, dual-color luciferase ratio. The essentials:
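Mouse MSC80 Schwann line, Pmp22 promoter–CBG68 reporter, EF-alpha–CBR internal control. 24h compound exposure, 37 °C/5% CO2, DMEM + 10% FBS. Readout: corrected green/red luminescence ratio, normalized to untreated cells; concentration-response curves fitted and classified.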

Assay [5] in a line: qHTS Validation Assay to Find Inhibitors of Chronic Active B-Cell Receptor Signaling (AID 485345). The conditions noted are these: ABC-DLBCL cells, chronic BCR signaling reporter; measured here: CBG/CBR ratio read-out. The gist of the method:
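TMD8 ABC-DLBCL cells with dox-inducible green luciferase–IκBα fusion and red native luciferase; compounds 46 uM–3 nM, 4 h at 37C with doxycycline in 0.5% FBS IMDM. Green/red ratio normalized to basal and 10 uM MG-132.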

Where [6] appears, read: TFE3-RCC UOK109 viability, measured here: UOK109 Z-AUC.
[7] abbreviates: TFE3-RCC viability, measured here: UOK124 Z-AUC.
The mark [8] stands for this setting: TFE3-RCC viability, measured here: UOK124 cell viability.
The mark [9] stands for this setting: TFE3-RCC viability, measured here: UOK145 Z-AUC.
The mark [10] stands for this setting: TFE3-RCC viability, measured here: UOK145 cell viability.
The mark [11] stands for this setting: measured here: red reporter channel AC50, EF-alpha promoter control reporter in MSC80 mouse Schwann cells.
[12] abbreviates: measured here: green reporter channel AC50, mouse Pmp22 promoter in mouse Schwann cells.

As usually defined, the AC50 is the concentration at which the activity in the assay is half-maximal.

With `Cc1c(N)nc([C@H](CC(N)=O)NC[C@@H](N)C(N)=O)nc1C(=O)N[C@H](C(=O)N[C@@H](C)[C@H](O)[C@@H](C)C(=O)N[C@@H](C(=O)NCCc1nc(-c2nc(C(=O)NCCC[S+](C)C)cs2)cs1)[C@@H](C)O)C(O[C@H]1O[C@H](CO)[C@H](O)[C@@H](O)[C@@H]1O[C@H]1O[C@H](CO)[C@@H](O)[C@H](OC(N)=O)[C@H]1O)c1cnc[nH]1` (some centres undefined), the z-score was -0.763 in assay [1] (setting [6]), -0.18 in assay [1] (setting [7]) and -0.641 in assay [1] (setting [9]). Further, the AC50 is 5.9 µM [falling, partial curve] in assay [1] (setting [8]) and 7.43 µM [falling, partial curve] in assay [1] (setting [10]).
Regarding `Cc1cc(SCc2sc(-c3ccc(C(F)(F)F)c(F)c3)nc2C)ccc1OCC(=O)O`, the AC50 in assay [2] was 7.94 µM [rising, full curve, poor fit]; in assay [1] (setting [8]), 11.8 µM [falling, partial curve, poor fit]. This compound also showed a max response in assay [3] of 103%. Besides, the z-score in assay [1] (setting [6]) turned out to be 1.15; in assay [1] (setting [7]) it was 0.449; in assay [1] (setting [9]), 0.71.
On to `NC(=O)c1ncn([C@@H]2O[C@H](CO)[C@@H](O)[C@H]2O)n1`, for which the AC50 in assay [4] (setting [11]) was 23.9 µM [falling, partial curve].
Same read-out and setting: next, `OCc1cnc[nH]1`: 84.9 µM [falling, single point]; `CCCCCCCCCC[Si](C)(C)CCC(=O)NC(Cc1ccc(C)cc1)c1ccccc1` (centres undefined): 84.9 µM [falling, single point].
With `CCCN(CCC)CCc1c[nH]c2ccc(C(N)=O)cc12`, the AC50 in assay [4] (setting [11]) is 37.9 µM [rising, single point].
`NC1C=CC=C(C(=O)O)C1` (centres undefined): in assay [4] (setting [11]), the AC50 is 23.9 µM [rising, single point].
For `CCCCCCC(C)(C)c1ccc([C@@H]2C[C@H](O)CC[C@H]2CCCO)c(O)c1`, the AC50 in assay [4] (setting [12]) is 33.8 µM [falling, full curve]; in assay [4] (setting [11]) it was 30.1 µM [falling, full curve].
Regarding `CO[C@H]1CCC(O[C@H]2C[C@H]([C@]3(C)CC[C@]4(C[C@H](O)[C@@H](C)[C@@H]([C@@H](C)C=C(C)C(=O)[C@H](C)C[C@H](C)C(=O)O)O4)O3)O[C@]3(O[C@@H]([C@H]4O[C@@](O)(CO)[C@H](C)C[C@H]4C)C[C@H]3C)[C@H]2C)O[C@H]1C` (some centres undefined), the z-score in assay [1] (setting [6]) was -0.9; in assay [1] (setting [7]), -1.16; in assay [1] (setting [9]), -0.208. In addition, the AC50 was 0.235 µM [falling, full curve] in assay [1] (setting [8]) and 1.48 µM [falling, full curve] in assay [1] (setting [10]).
In the case of `NCC#Cc1ccccc1`, the AC50 in assay [4] (setting [12]) was 60.1 µM [falling, partial curve].
`CC[C@@H]1C(=O)OC[C@@H]1Cc1cncn1C`: the AC50 in assay [4] (setting [11]) was 95.3 µM [falling, single point].
With `CCCCC/C=C\C/C=C\C/C=C\C/C=C\CCCC(=O)NCC(=O)O`, the AC50 in assay [4] (setting [11]) is 84.9 µM [falling, single point].
The same measure, in the same setting: next, `C[N+]1(C)CCC(OC(=O)C(c2ccccc2)c2ccccc2)CC1`: 12 µM [rising, partial curve, poor fit].
On the same count and under the same terms, next, `CCCCCCCCC(=O)NCc1ccc(O)c(OC)c1`: 8.49 µM [rising, partial curve, poor fit].
In the case of `C[C@@H]1[C@@H](CC(C[C@H]2O[C@@H]3O[C@]4(C)CC[C@@H]5[C@H](C)CC[C@@H]([C@H]2C)[C@@]35OO4)C[S+](=O)([O-])c2ccc(COC(=O)N(C)C)cc2)O[C@@H]2O[C@]3(C)CC[C@H]4[C@H](C)CC[C@@H]1[C@@]24OO3` (some centres undefined), the z-score in assay [1] (setting [6]) is -0.246; in assay [1] (setting [7]), -0.644; in assay [1] (setting [9]), -0.159. Besides, the AC50 was 0.526 µM [falling, full curve] in assay [1] (setting [8]) and 1.48 µM [falling, full curve] in assay [1] (setting [10]).
Turning to `O=c1[nH]c2ccccc2n1CCCN1CCC(n2c(=O)[nH]c3cc(Cl)ccc32)CC1`, the AC50 was 37.9 µM [falling, partial curve] in assay [4] (setting [12]); 67.5 µM [falling, partial curve] in assay [4] (setting [11]); 6.51 µM [falling, partial curve] in assay [5]; 23.5 µM [falling, single point] in assay [1] (setting [8]). Further, the figures for the z-score in assay [1] (setting [6]), in assay [1] (setting [7]) and in assay [1] (setting [9]) were 0.696, 0.373 and 0.715, respectively.
Take `C=CCN1CCC2(C)c3cc(O)ccc3CC1C2C` (centres undefined): the AC50 in assay [4] (setting [11]) was 16.9 µM [rising, single point].
The same measure, in the same setting: next, `CC(C)N(CCC(C(N)=O)(c1ccccc1)c1ccccn1)C(C)C` (centres undefined): 13.5 µM [rising, partial curve, poor fit].
On the same count and under the same terms, next, `CC(C)COC(=O)OCN1C(=O)CN(CCN2CC(=O)N(COC(=O)OCC(C)C)C(=O)C2)CC1=O`: 75.7 µM [falling, partial curve, poor fit].
For `C=CCN1C[C@@H](C)N([C@H](c2ccc(C(=O)N(CC)CC)cc2)c2cccc(OC)c2)C[C@@H]1C`, the AC50 in assay [4] (setting [11]) is 95.3 µM [falling, single point].
